Binding data for one molecule are collected here from article PMC9758056.

This assay concerns the target LRRK1^RCKW (LRRK1 residues 631 to 2015) (human) (UniProt Q38SD2). In words: cryo-EM structure; LRRK1^RCKW alone, 2–6 μM, 20 mM HEPES pH 7.4, 80 mM NaCl, 0.5 mM TCEP, 2.5 mM MgCl2, 20 μM GDP, no ATP; 5.8 Å map of a monomer; both purified.

Results are given in words; binding and its absence hold for the method and conditions named.

B1: LRRK1^RCKW (LRRK1 residues 631 to 2015) (domain or fragment, UniProt Q38SD2 631-2015)
chain: RKAEKCKLMKMIIVGPPRQGKSTLLEILQTGRAPQVVHGEATIRTTKWELQRPAGSRAKVESVEFNVWDIGGPASMATVNQCFFTDKALYVVVWNLALGEEAVANLQFWLLNIEAKAPNAVVLVVGTHLDLIEAKFRVERIATLRAYVLALCRSPSGSRATGFPDITFKHLHEISCKSLEGQEGLRQLIFHVTCSMKDVGSTIGCQRLAGRLIPRSYLSLQEAVLAEQQRRSRDDDVQYLTDRQLEQLVEQTPDNDIKDYEDLQSAISFLIETGTLLHFPDTSHGLRNLYFLDPIWLSECLQRIFNIKGSRSVAKNGVIRAEDLRMLLVGTGFTQQTEEQYFQFLAKFEIALPVANDSYLLPHLLPSKPGLDTHGMRHPTANTIQRVFKMSFVPVGFWQRFIARMLISLAEMDLQLFENKKNTKSRNRKVTIYSFTGNQRNRCSTFRVKRNQTIYWQEGLLVTFDGGYLSVESSDVNWKKKKSGGMKIVCQSEVRDFSAMAFITDHVNSLIDQWFPALTATESDGTPLMEQYVPCPVCETAWAQHTDPSEKSEDVQYFDMEDCVLTAIERDFISCPRHPDLPVPLQELVPELFMTDFPARLFLENSKLEHSEDEGSVLGQGGSGTVIYRARYQGQPVAVKRFHIKKFKNFANVPADTMLRHLRATDAMKNFSEFRQEASMLHALQHPCIVALIGISIHPLCFALELAPLSSLNTVLSENARDSSFIPLGHMLTQKIAYQIASGLAYLHKKNIIFCDLKSDNILVWSLDVKEHINIKLSDYGISRQSFHEGALGVEGTPGYQAPEIRPRIVYDEKVDMFSYGMVLYELLSGQRPALGHHQLQIAKKLSKGIRPVLGQPEEVQFRRLQALMMECWDTKPEKRPLALSVVSQMKDPTFATFMYELCCGKQTAFFSSQGQEYTVVFWDGKEESRNYTVVNTEKGLMEVQRMCCPGMKVSCQLQVQRSLWTATEDQKIYIYTLKGMCPLNTPQQALDTPAVVTCFLAVPVIKKNSYLVLAGLADGLVAVFPVVRGTPKDSCSYLCSHTANRSKFSIADEDARQNPYPVKAMEVVNSGSEVWYSNGPGLLVIDCASLEICRRLEPYMAPSMVTSVVCSSEGRGEEVVWCLDDKANSLVMYHSTTYQLCARYFCGVPSPLRDMFPVRPLDTEPPAASHTANPKVPEGDSIADVSIMYSEELGTQILIHQESLTDYCSMSSYSSSPPRQAARSPSSLPSSPASSSSVPFSTDCEDSDMLHTPGAASDRSEHDLTPMDGETFSQHLQAVKILAVRDLIWVPRRGGDVIVIGLEKDSGAQRGRVIAVLKARELTPHGVLVDAAVVAKDTVVCTFENENTEWCLAVWRGWGAREFDIFYQSYEELGRLEACTRKRR
In the case of B1, the binding entry was “no binding (tested: 2–6 μM protein)”.
